Here are results for 23 molecules from patent publication EP4713368A1.

Chains of the proteins cited; added tags and fusions are not shown. Lines headed by an entry give the natural chain unless they say otherwise; changes in a name come on top.
UniProt P10747: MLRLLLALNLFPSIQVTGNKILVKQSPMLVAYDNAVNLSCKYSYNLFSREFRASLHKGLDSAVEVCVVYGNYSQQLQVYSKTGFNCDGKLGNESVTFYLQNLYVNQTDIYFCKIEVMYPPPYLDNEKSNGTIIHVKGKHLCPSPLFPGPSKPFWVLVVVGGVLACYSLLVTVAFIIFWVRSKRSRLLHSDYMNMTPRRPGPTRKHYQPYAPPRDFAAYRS

For experiment [1], the target named is human CD28 (human) (UniProt P10747). Description: selection from yeast-presented synthetic human antibody libraries.
Experiment [2] has the same target. Description: selection from yeast-presented heavy chain-only libraries (HCAb format).
Experiment [3] shares this target. Description: selection from yeast-presented libraries of heavy chains and CD3-binding light chains.
Experiment [4] has the same target. Kind of experiment: affinity maturation of CD28-binding antibodies (Example 10: Discovery of Additional Antibodies that Bind to CD28); the name 83f stands at the start of paragraph 898.

No constants are given. Whether binding was seen depends on the method and setting. Some binding calls cover weakened binding; strength is not graded here.

B1: Ab No. 56 (antibody, V domains shown)
VH: QVQLQESGPGLVKPSETLSLTCTVSGGSISSYYWSWIRQPPGKGLEWIGSIYYSGSTNYNPSLKSRVTISVDTSKNQFSLKLSSVTAADTAVYYCARTEVGATRPREDFHHWGQGTLVTVSS
VL: QSVLTQPPSVSAAPGQKVTISCSGSSSNIGNNYVSWYQQLPGTAPKLLIYDNNKRPSGIPDRFSGSKSGTSATLGITGLQTGDEADYYCGTWDNPLGWVFGGGTKLTVL
As for B1, in the experiment with human CD28 (human) [1], the binding result was “binds”.

B2: Ab No. 84 (antibody, V domains shown)
VH: EVQLLESGGGLVQPGGSLRLSCAASGFTFSDYDMTWVRQAPGKERELVSSISSSSTDIYYADSVKGRFTISRDNSKNTLYLQMNSLRAEDTAVYYCNAWKKFSHPQVATEDVWGQGTQVTVSS
Turning to B2, in the experiment with human CD28 (human) [2], the binding result is recorded as “binds”.

B3: Ab No. 74 (antibody, V domains shown)
VH: EVQLLESGGGLVQPGGSLRLSCAASGFTFDSYHMSWVRQAPGKERELVSAISGSGGSTYYADSVKGRFTISRDNSKNTLYLQMNSLRAEDTAVYYCAKIDTIVVGDDYEEYDFGSWGQGTQVTVSS
In the case of B3, in the experiment with human CD28 (human) [2], the binding entry is “binds”.

B4: Ab No. 80 (antibody, V domains shown)
VH: EVQLLESGGGLVQPGGSLRLSCAASGFDFSSFAMSWFRQAPGKERELVSAISGSGSETYYADSVKGRFTISRDNSKNTLYLQMNSLRAEDTAVYYCHARGIGLESQVSYYWGQGTQVTVSS
As for B4, in the experiment with human CD28 (human) [2], the binding result is recorded as “binds”.

B5: Ab No. 55 (antibody, V domains shown)
VH: QLQLQESGPGLVKPSETLSLTCTVSGGSISSSDYYWGWIRQPPGKGLEWIGSIYYSGSTYYNPSLKSRVTISVDTSKNQFSLKLSSVTAADTAVYYCVRSYYYVWGASDYWGQGTLVTVSS
VL: QSALTQPRSVSGSPGQSVTISCTGTSSDVGGYNYVSWYQQHPGKAPKLLIYDVSKRPSGVPDRFSGSKSGNTASLTISGLQAEDEADYYCSSYADRVTFRAFGGGTKLTVL
For the molecule B5, the binding result in the experiment with human CD28 (human) [1] is on record as “binds”.

B6: Ab No. 82 (antibody, V domains shown)
VH: EVQLLESGGGLVQPGGSLRLSCAASGFTFDSFAMSWFRQAPGKERELVSAISGSGGSTYYADSVKGRFTISRDNSKNTLYLQMNSLRAEDTAVYYCNARGGGLAGFFNYWGQGTQVTVSS
On to B6, for which, in the experiment with human CD28 (human) [2], the binding result is listed as “binds”.

B7: Ab No. 75 (antibody, V domains shown)
VH: EVQLLESGGGLVQPGGSLRLSCAASGFTFSSYAMSWYRQAPGKERELVSAISGSGGSTYYADSVKGRFTISRDNSKNTLYLQMNSLRAEDTAVYYCARIIAGATGTFGYGLDVWGQGTQVTVSS
For the molecule B7, in the experiment with human CD28 (human) [2], the binding entry is “binds”.

B8: Ab No. 81 (antibody, V domains shown)
VH: EVQLLESGGGLVQPGGSLRLSCAASGFTFDKYSMNWYRQAPGKERELVSAISGSGGDTYYADSVKGRFTISRDNSKNTLYLQMNSLRAEDTAVYYCHARGVIVVEPGEYELNFGWGQGTQVTVSS
As for B8, in the experiment with human CD28 (human) [2], the binding entry is “binds”.

B9: Ab No. 73 (antibody, V domains shown)
VH: EVQLLESGGGLVQPGGSLRLSCAASGFTFSDFTMSWFRQAPGKERELVSFIGSKAYGGTTEYADSVKGRFTISRDNSKNTLYLQMNSLRAEDTAVYYCAASRYAAPPIDLREDYWGQGTQVTVSS
Regarding B9, the binding entry with human CD28 (human) [2] is on record as “binds”.

B10: Ab No. 59 (antibody, V domains shown)
VH: QVQLVQSGAEVKKPGASVKVSCKASGYTFSSYGISWVRQAPGQGLEWMGWISAASGDTDYAQKLQGRVTMTTDTSTSTAYMELRSLRSDDTAVYYCARDYYSYVGDYYGMDVWGQGTTVTVSS
VL: DIVMTQSPDSLAVSLGERATINCKSSQSLLNARTGKNYLAWYQQKPGQPPKLLIYWASTRESGVPDRFSGSGSGTDFTLTISSLQAEDVAVYYCKQSYSLRTFGGGTKVEIK
For the molecule B10, the binding entry with human CD28 (human) [3] is recorded as “binds”.

B11: Ab No. 66 (antibody, V domains shown)
VH: EVQLVESGGGLVQPGGSLRLSCAASGFTFSSYSMNWVRQAPGKGLEWVSYIDSSSSTIYYADSVKGRFTISRDNAKNSLYLQMNSLRAEDTAVYYCARDTPMGWGAFDIWGQGTLVTVSS
VL: DIVMTQSPDSLAVSLGERATINCKSSQSLLNARTGKNYLAWYQQKPGQPPKLLIYWASTRESGVPDRFSGSGSGTDFTLTISSLQAEDVAVYYCKQSYSLRTFGGGTKVEIK
As to B11, the binding entry in the experiment with human CD28 (human) [3] was “binds”.

B12: Ab No. 63 (antibody, V domains shown)
VH: EVQLVESGGGLVQPGGSLRLSCAASGFTFDSYSMNWVRQAPGKGLEWVSYIDSSSSTILYADSVKGRFTISRDNAKNSLYLQMNSLRAEDTAVYYCARDRPLGWGPFDIWGQGTMVTVSS
VL: DIVMTQSPDSLAVSLGERATINCKSSQSLLNARTGKNYLAWYQQKPGQPPKLLIYWASTRESGVPDRFSGSGSGTDFTLTISSLQAEDVAVYYCKQSYSLRTFGGGTKVEIK
On to B12, for which, in the experiment with human CD28 (human) [3], the binding entry is on record as “binds”.

B13: Ab No. 69 (antibody, V domains shown)
VH: QLQLQESGPGLVKPSETLSLTCTVSGGSISSSNYYWGWIRQPPGKGLEWIGYIYYPASTYYNPSLKSRVTISVDTSKNQFSLKLSSVTAADTAVYYCARGTNSIRGTGAFDIWGQGTMVTVSS
VL: DIVMTQSPDSLAVSLGERATINCKSSQSLLNARTGKNYLAWYQQKPGQPPKLLIYWASTRESGVPDRFSGSGSGTDFTLTISSLQAEDVAVYYCKQSYSLRTFGGGTKVEIK
With B13, the binding result in the experiment with human CD28 (human) [3] is recorded as “binds”.

B14: Ab No. 64 (antibody, V domains shown)
VH: EVQLVESGGGLVQPGGSLRLSCAASGFTFPAYSMNWVRQAPGKGLEWVSYISSSSDTIYYADSVKGRFTISRDNAKNSLYLQMNSLRAEDTAVYYCARDTPMGWGAFDIWGQGTMVTVSS
VL: DIVMTQSPDSLAVSLGERATINCKSSQSLLNARTGKNYLAWYQQKPGQPPKLLIYWASTRESGVPDRFSGSGSGTDFTLTISSLQAEDVAVYYCKQSYSLRTFGGGTKVEIK
Consider B14, for which the binding result in the experiment with human CD28 (human) [3] is “binds”.

B15: Ab No. 67 (antibody, V domains shown)
VH: EVQLVESGGGLVQPGGSLRLSCAASGFTFERYSMNWVRQAPGKGLEWVSYISSQSDTIYYADSVKGRFTISRDNAKNSLYLQMNSLRAEDTAVYYCARDTPMGWGAFDVWGQGTLVTVSS
VL: DIVMTQSPDSLAVSLGERATINCKSSQSLLNARTGKNYLAWYQQKPGQPPKLLIYWASTRESGVPDRFSGSGSGTDFTLTISSLQAEDVAVYYCKQSYSLRTFGGGTKVEIK
Consider B15, for which the binding result with human CD28 (human) [3] is recorded as “binds”.

B16: Ab No. 65 (antibody, V domains shown)
VH: EVQLVESGGGLVQPGGSLRLSCAASGFTFRSYSMNWVRQAPGKGLEWVSYIDSSSSTIYYADSVKGRFTISRDNAKNSLYLQMNSLRAEDTAVYYCARDTPMGWGAFDIWGQGTTVTVSS
VL: DIVMTQSPDSLAVSLGERATINCKSSQSLLNARTGKNYLAWYQQKPGQPPKLLIYWASTRESGVPDRFSGSGSGTDFTLTISSLQAEDVAVYYCKQSYSLRTFGGGTKVEIK
As for B16, the binding entry with human CD28 (human) [3] is given as “binds”.

B17: Ab No. 62 (antibody, V domains shown)
VH: EVQLVESGGGLVQPGGSLRLSCAASGFTFDSYSMNWVRQAPGKGLEWVSYISSSSDTIFYADSVKGRFTISRDNAKNSLYLQMNSLRAEDTAVYYCARDRPLGWGPFDIWGQGTMVTVSS
VL: DIVMTQSPDSLAVSLGERATINCKSSQSLLNARTGKNYLAWYQQKPGQPPKLLIYWASTRESGVPDRFSGSGSGTDFTLTISSLQAEDVAVYYCKQSYSLRTFGGGTKVEIK
For B17, in the experiment with human CD28 (human) [3], the binding entry is listed as “binds”.

B18: Ab No. 76 (antibody, V domains shown)
VH: EVQLLESGGGLVQPGGSLRLSCAASGFTFDAYAMSWVRQAPGKERELVSAITDEGSTNYADSVKGRFTISRDNSKNTLYLQMNSLRAEDTAVYYCAVEPWGRIWGQGTQVTVSS
As to B18, the binding result in the experiment with human CD28 (human) [2] is on record as “binds”.

B19: Ab No. 77 (antibody, V domains shown)
VH: EVQLLESGGGLVQPGGSLRLSCAASGFTFSSYAMSWVRQAPGKERELVSVISSEGSTDYADSVKGRFTISRDNSKNTLYLQMNSLRAEDTAVYYCAVEPWGRIWGQGTQVTVSS
B19: the binding entry with human CD28 (human) [2] was “binds”.

B20: Ab No. 83f (antibody, V domains shown)
VH: EVQLLESGGGLVQPGGSLRLSCAASGSTFENFAMTWYRQAPGKERELVSAISAQGGSTYYADSVKGRFTISRDNSKNTLYLQMNSLRAEDTAVYYCNARRYQSSGGDVWGQGTQVTVSS
For the molecule B20, the binding entry with human CD28 (human) [4] was “binds”.

B21: Ab No. 79 (antibody, V domains shown)
VH: EVQLLESGGGLVQPGGSLRLSCAASGFTFDHYAMSWFRQAPGKERELVSAISGPGDSTYYADSVKGRFTISRDNSKNTLYLQMNSLRAEDTAVYYCHARGIAARPEGAPRADFGWGQGTQVTVSS
As for B21, in the experiment with human CD28 (human) [2], the binding result was “binds”.

B22: Ab No. 71 (antibody, V domains shown)
VH: EVQLLESGGGLVQPGGSLRLSCAASGFTFDNYAMSWVRQAPGKERELVSFISGSGGSTYYADSVKGRFTISRDNSKNTLYLQMNSLRAEDTAVYYCAAHASGSYYLDVSRDYDADYWGQGTQVTVSS
B22: in the experiment with human CD28 (human) [2], the binding result is recorded as “binds”.

B23: Ab No. 72 (antibody, V domains shown)
VH: EVQLLESGGGLVQPGGSLRLSCAASGFTFSAYAMSWVRQAPGKERELVSIISGSGGSTYYADSVKGRFTISRDNSKNTLYLQMNSLRAEDTAVYYCAAHASGSYYLDVSRDYDADYWGQGTQVTVSS
For the molecule B23, the binding result with human CD28 (human) [2] is “binds”.
